Data taken from PMC10675528, “N-Succinylaspartic-Acid-Conjugated Riluzole Is a Safe and Potent Colon-Targeted Prodrug of Riluzole against DNBS-Induced Rat Colitis” (Pharmaceutics, 2023).

Key:
[1] = RLZ concentration in blood (plasma) after oral administration; format: in vivo, Sprague-Dawley rats; conditions: male, Sprague-Dawley, rat, oral RLZ 10 mg/kg, sampled at 4, 8, 12 h, read-out: time of peak concentration of RLZ in blood
Description: The plasma (0.25 mL) was extracted with EA (0.7 mL), and the organic layer (0.5 mL) was evaporated and dissolved in mobile phase A or B (0.1 mL). After filtration through a membrane filter (0.45 μm), the filtrate (20 μL) was injected to HPLC. To determine the concentrations of SAR and RAS in the blood, MeOH (0.9 mL) was added to the plasma (0.1 mL) and centrifuged at 10,000× g at 4 °C for 10 min. After filtration of the supernatants through a membrane filter (0.45 μm), the filtrate (20 μL) was injected to HPLC.

physchem = conditions: pH 6.8

## Nc1nc2ccc(OC(F)(F)F)cc2s1 [RLZ, riluzole]
[1]
  Tmax: 4 h
physchem
  logD: 3.5
